# Source: PubChem BioAssay AID1259308 (NCATS, 2017)
# Screen: 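Candidate targets for better recombinant protein yield in mammalian cells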 (primary screen)
# Cells: human HEK293 embryonic kidney cells stably expressing firefly luciferase (HEK-CMV-Luc2-Hygro)
# Reagents: single siRNA against human genes, 0.8 pmol siRNA per well
# Time to read-out: 72 h
# Read-out: 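Luciferase light (ONE-Glo) measured on one replicate plate set and viability (CellTiter-Glo) on the other, scaled to a negative control siRNA, with robust z-scores and luciferase per cell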
# Direction: total luciferase, z-score: higher = more reporter protein produced
# Hit rule: 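An siRNA counts as active if its total luciferase robust z-score exceeds 3; genes with two or more such siRNAs out of three were retested with fresh siRNAs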
# Calls: active = raised luciferase; inactive = no rise
# Shown is an unselected part of about 59,000 reagents. Of all reagents, about 1,510 (2.6%) are marked active. 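Calls use total luciferase alone and ignore viability, so some active siRNAs may act by altering cell number.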 A number with no mark means an inactive call. The numbers tell different reagents against one gene apart. Further read-outs or replicates are left out here.
gene,reagent,"total luciferase, z-score"
ZNF446,1,-0.871
ZNF446,2,0.205
ZNF446,3,-1.19
NDUFB3,1,-0.422
NDUFB3,2,-0.891
NDUFB3,3,-1.05
SCYL1,1,0.255
SCYL1,2,-1.67
SCYL1,3,0.359
ERCC4,1,0.267
ERCC4,2,0.586
ERCC4,3,1.03
MYH7B,1,0.423
MYH7B,2,-1.17
MYH7B,3,-0.201
CX3CL1,1,-0.0237
CX3CL1,2,0.155
CX3CL1,3,-0.019

Copied from the list.
MYH7B #3, total luciferase, z-score: -0.201
Entry for MYH7B #2 in “total luciferase, z-score”: -1.17
MYH7B #1, total luciferase, z-score = 0.423
Value of ZNF446 #3 in “total luciferase, z-score”: -1.19

Next records:
gene,reagent,"total luciferase, z-score"
ITGB3BP,1,-1.42
ITGB3BP,2,-0.916
ITGB3BP,3,0.776
NLRP7,1,-2.37
NLRP7,2,1.02
NLRP7,3,-0.521
SHLD2,1,-0.382
SHLD2,2,0.961
SHLD2,3,-0.596
SCG2,1,1.44
SCG2,2,1.31
SCG2,3,0.339
INSM2,1,0.175
INSM2,2,0.56
INSM2,3,-0.00198
OR2A2,1,-0.189
OR2A2,2,0.742
OR2A2,3,-0.959
IDE,1,-1.36
IDE,2,0.157
IDE,3,-1.41
